From paper PMC6829904
These are yes or no findings as the source states them, for the method shown. A result given as binding can be weak or reduced; the word gives no strength. For some of these results: Tags and fused reporters may be left off the sequences shown.

What was measured:
Test in all cases: two-hybrid; Matchmaker GAL4-based two-hybrid system 3, pGBKT7 and pGADT7 constructs cotransformed into yeast AH109; selection on SD/-Leu/-Trp/-His/-Ade (QDO) and QDO with X-a-gal
[1] = target: SlSWI3C (yeast two-hybrid fusion) (tomato (Solanum lycopersicum))
[2] = target: T1, Arabidopsis SWI3A (yeast two-hybrid fusion) (Arabidopsis) (UniProt Q8W475)
T1 sequence: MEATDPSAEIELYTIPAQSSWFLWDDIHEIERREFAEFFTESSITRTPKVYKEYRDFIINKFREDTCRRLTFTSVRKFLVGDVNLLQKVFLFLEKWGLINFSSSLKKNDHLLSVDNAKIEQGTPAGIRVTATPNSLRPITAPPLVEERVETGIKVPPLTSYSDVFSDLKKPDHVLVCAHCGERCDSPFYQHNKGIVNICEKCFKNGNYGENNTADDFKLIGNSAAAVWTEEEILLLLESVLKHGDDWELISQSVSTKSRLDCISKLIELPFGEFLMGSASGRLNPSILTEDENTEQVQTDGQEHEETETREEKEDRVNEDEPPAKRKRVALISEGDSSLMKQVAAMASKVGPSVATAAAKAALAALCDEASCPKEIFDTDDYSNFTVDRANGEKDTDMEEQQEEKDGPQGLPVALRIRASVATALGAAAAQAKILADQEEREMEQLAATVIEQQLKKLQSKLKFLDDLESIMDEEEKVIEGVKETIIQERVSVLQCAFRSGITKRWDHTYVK

[3] = target: T2, Arabidopsis SWI3B (yeast two-hybrid fusion) (Arabidopsis) (UniProt Q84JG2)
T2 sequence: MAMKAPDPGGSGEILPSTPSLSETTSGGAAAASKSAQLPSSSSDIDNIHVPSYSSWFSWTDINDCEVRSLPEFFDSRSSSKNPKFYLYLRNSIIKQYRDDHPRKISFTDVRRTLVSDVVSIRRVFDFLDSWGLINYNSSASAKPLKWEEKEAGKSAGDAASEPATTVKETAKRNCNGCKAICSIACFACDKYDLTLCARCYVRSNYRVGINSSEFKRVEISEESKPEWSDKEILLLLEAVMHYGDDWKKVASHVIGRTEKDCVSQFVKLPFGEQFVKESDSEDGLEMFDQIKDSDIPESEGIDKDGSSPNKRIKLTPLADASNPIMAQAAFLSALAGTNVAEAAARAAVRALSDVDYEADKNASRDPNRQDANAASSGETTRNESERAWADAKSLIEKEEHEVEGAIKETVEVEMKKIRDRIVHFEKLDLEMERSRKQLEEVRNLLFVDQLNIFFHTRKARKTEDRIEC

[4] = target: T3, Arabidopsis SWI3D (yeast two-hybrid fusion) (Arabidopsis) (UniProt Q8VY05)
T3 sequence: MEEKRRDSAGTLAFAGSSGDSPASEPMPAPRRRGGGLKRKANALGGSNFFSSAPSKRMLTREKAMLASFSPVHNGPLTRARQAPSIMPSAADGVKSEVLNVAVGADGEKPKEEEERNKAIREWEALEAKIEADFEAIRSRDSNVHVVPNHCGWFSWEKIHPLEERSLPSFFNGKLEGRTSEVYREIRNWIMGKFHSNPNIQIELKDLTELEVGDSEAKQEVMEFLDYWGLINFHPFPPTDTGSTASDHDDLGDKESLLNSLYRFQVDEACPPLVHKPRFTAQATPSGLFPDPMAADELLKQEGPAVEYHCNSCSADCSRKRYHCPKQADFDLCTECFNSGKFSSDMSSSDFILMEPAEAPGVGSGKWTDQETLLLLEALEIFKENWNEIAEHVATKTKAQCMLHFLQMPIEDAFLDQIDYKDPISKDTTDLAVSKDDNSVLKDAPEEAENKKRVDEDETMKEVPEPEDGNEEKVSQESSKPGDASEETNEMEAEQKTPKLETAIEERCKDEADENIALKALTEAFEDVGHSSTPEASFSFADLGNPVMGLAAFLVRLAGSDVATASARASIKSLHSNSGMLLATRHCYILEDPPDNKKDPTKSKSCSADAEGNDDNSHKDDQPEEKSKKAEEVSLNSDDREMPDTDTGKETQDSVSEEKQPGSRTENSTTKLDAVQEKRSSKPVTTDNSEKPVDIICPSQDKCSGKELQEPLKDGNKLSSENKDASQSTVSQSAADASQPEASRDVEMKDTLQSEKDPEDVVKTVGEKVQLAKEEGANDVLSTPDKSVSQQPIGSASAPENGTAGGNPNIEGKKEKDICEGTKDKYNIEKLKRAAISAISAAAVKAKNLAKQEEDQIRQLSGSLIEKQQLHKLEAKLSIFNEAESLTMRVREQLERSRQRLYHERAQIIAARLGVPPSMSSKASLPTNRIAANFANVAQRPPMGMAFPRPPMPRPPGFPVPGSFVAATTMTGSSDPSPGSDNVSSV

binding [1] | binding [2] | binding [3] | binding [4] | Substance
binds | – | – | – | SlSWI3B (yeast two-hybrid fusion) (from UniProt A0A3Q7G8R8)
– | binds | binds | binds | SlSWI3C (yeast two-hybrid fusion) (from UniProt A0A3Q7GUL8)
